Publication PMC4594035, “Xenopus borealis as an alternative source of oocytes for biophysical and pharmacological studies of neuronal ion channels” (Scientific Reports, 2015)

System: vitelline membrane of Xenopus oocytes
Experiment: Background fluorescence of oocytes on dye labelling (dye accessibility through the vitelline membrane)
Set-up: species or system X. laevis and X. borealis
Conditions: with or without 1 min protease, 10 μM dye in ND96, 25 s, n = 7

CCN(CC)c1ccc2c(-c3ccc(S(=O)(=O)NCCSS(C)(=O)=O)cc3S(=O)(=O)[O-])c3ccc(=[N+](CC)CC)cc-3oc2c1 [MTSR, sulfo rhodamine methanethiosulfonate]
Background fluorescence upon labelling, X. borealis oocytes (X. borealis oocytes expressing α1N203C GlyR): only increased following protease treatment then labelling | Background fluorescence upon labelling, X. laevis oocytes (X. laevis oocytes expressing α1N203C GlyR): increased to a similar degree upon sulfo rhodamine methanethiosulfonate (MTSR) labelling irrespective of protease treatment
